In the supplement of paper PMC12819154, “High-throughput peptide-centric local stability assay extends protein–ligand identification to membrane proteins, tissues and bacteria” (Nature Structural & Molecular Biology, 2025):
Some of the results follow. Most entries show no effect beyond the scatter of the controls.

Chains of the proteins cited; added tags and fusions are not shown. Lines headed by an entry give the natural chain unless they say otherwise; changes in a name come on top.
UniProt Q8K3K7: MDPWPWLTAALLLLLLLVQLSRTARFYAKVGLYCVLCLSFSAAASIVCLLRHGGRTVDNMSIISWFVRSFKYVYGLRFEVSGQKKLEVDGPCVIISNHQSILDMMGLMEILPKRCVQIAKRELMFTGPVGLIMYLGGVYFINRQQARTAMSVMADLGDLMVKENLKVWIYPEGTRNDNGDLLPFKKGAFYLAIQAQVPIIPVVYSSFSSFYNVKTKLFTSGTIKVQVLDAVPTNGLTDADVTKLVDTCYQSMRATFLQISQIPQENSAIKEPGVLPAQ
UniProt Q8R1R3: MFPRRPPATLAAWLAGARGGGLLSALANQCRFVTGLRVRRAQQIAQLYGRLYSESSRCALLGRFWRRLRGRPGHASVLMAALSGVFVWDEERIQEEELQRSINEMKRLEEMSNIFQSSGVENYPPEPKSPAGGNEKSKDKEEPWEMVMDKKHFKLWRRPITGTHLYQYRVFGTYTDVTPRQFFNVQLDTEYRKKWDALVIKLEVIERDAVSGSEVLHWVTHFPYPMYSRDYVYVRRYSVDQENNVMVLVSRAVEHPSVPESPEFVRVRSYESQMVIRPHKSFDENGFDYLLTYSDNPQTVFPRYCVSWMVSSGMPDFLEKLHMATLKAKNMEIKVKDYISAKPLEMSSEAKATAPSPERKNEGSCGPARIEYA
UniProt Q8K2W3: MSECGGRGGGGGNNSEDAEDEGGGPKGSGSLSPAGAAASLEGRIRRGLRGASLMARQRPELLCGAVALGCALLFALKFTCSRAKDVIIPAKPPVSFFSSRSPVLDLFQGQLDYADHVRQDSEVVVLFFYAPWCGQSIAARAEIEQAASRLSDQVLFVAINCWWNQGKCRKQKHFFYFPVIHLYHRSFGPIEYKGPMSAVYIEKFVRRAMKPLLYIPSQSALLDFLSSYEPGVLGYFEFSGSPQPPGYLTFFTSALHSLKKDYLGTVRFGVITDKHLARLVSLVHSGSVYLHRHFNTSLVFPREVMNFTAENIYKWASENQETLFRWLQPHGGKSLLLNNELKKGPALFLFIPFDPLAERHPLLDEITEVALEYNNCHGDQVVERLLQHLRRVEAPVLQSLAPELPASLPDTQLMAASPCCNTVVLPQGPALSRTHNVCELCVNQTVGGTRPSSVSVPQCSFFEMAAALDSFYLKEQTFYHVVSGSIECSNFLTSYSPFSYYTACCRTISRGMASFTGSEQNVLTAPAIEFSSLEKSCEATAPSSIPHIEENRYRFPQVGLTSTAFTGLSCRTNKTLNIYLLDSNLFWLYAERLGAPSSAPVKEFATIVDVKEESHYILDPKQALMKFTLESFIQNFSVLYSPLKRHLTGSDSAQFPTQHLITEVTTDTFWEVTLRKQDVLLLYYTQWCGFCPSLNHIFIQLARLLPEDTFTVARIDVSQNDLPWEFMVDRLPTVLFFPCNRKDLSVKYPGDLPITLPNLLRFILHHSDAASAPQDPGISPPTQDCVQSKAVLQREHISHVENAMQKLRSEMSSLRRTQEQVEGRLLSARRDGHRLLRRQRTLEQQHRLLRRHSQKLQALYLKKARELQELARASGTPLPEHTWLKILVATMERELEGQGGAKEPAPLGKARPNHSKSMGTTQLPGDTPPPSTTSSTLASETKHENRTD
UniProt Q8K2Z2: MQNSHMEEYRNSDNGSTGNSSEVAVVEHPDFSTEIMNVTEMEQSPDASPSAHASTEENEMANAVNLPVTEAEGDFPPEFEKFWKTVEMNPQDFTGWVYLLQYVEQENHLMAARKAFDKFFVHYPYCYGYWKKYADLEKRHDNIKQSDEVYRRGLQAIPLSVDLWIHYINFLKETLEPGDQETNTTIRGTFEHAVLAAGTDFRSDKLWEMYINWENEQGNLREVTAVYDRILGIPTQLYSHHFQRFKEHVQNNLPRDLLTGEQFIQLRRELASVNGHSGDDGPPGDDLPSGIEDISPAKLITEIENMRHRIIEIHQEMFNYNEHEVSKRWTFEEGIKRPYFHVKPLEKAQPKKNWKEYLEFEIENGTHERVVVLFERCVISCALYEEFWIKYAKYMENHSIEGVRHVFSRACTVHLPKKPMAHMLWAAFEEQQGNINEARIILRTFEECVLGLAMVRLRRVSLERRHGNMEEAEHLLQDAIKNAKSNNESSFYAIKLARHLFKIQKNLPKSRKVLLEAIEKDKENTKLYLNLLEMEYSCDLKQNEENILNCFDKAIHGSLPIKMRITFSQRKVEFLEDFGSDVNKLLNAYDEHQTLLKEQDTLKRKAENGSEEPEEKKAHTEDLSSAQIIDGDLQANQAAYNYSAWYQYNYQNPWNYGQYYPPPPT
UniProt Q8R001, whole entry: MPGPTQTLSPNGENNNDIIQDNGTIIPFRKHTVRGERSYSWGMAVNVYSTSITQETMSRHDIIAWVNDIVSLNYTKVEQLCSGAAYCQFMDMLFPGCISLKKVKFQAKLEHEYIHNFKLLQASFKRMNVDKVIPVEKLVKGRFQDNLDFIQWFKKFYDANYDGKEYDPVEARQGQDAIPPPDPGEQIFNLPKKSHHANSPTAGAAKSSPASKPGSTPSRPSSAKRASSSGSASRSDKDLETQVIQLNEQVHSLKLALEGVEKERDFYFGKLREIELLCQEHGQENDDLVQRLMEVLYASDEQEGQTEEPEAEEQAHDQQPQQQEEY
UniProt Q8R0P4: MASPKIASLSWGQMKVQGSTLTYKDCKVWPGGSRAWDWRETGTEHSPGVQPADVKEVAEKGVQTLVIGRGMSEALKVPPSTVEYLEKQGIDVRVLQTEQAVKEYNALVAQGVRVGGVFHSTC

compound: CN[C@@H]1C[C@H]2O[C@@](C)([C@@H]1OC)n1c3ccccc3c3c4c(c5c6ccccc6n2c5c31)C(=O)NC4 [staurosporine]; assay: log2 fold change of tryptic peptide abundance, ligand vs vehicle (limited proteolysis) (log2 ratio); higher = more trypsin-susceptible (destabilized); conditions: ligand concentration: 20 uM; sample: mouse liver crude lysate; replicate design: treated separately

Target | log2 fold change
UniProt Q8K3K7 (peptide sequence: LVDTCYQSMR, peptide start residue: 244) | -0.408
UniProt Q8R1R3 (peptide sequence: QFFNVQLDTEYRK, peptide start residue: 181) | -0.822
UniProt Q8K2W3 (peptide sequence: EHISHVENAMQK, peptide start residue: 795) | -0.448
UniProt Q8K2Z2 (peptide sequence: KAENGSEEPEEKK, peptide start residue: 605) | -1.04
UniProt Q8R001 (peptide sequence: SHHANSPTAGAAK, peptide start residue: 194) | 0.599
UniProt Q8R0P4 (peptide sequence: VQGSTLTYK, peptide start residue: 16) | 0.3

Some of the entries so far, as tab-separated lines.
Target	log2 fold change
UniProt Q8R001 (peptide sequence: SHHANSPTAGAAK, peptide start residue: 194)	0.599
UniProt Q8R0P4 (peptide sequence: VQGSTLTYK, peptide start residue: 16)	0.3
